One substance from PMC10590452 can be followed below.

Chains of the proteins cited; added tags and fusions are not shown. Residues count along the entry.
UniProt Q9NZC2, residues 19-174: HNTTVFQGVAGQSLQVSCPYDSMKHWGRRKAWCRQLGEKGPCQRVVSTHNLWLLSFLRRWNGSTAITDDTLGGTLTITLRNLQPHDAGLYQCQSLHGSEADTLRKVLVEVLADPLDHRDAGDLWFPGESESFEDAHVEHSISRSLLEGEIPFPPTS
UniProt P37802: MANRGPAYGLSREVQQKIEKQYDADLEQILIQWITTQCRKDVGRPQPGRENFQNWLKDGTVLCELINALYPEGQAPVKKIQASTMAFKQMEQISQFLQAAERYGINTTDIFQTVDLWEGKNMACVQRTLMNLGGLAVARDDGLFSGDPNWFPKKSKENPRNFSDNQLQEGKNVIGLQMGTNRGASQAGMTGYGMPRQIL

No constants are given. Whether binding was seen depends on the method and setting. In cells and extracts the contact can be indirect. A yes stands for co-enrichment or nearness to the bait. Other partners may have been found.

This assay has as its target Fc-tagged human soluble TREM2 (Fc-sTREM2) (human) (UniProt Q9NZC2). Briefly: affinity purification with mass spectrometry; membrane protein of SH-SY5Y cells incubated with Fc-sTREM2 and Protein A agarose for 24 h; LC-MS/MS; only the target purified.

For the substance “transgelin-2 (TG2), endogenous in SH-SY5Y cells (from UniProt P37802 1-199)”, the binding result is “binds”.
